These are yes or no findings as the source states them, for the method shown. In cells and extracts the contact can be indirect. Some binding calls cover weakened binding; strength is not graded here. For some of these results: Sequences can lack the tags named with a protein.
How the values were obtained:
[1] = molecular target: T1, forkhead box protein A1 (FOXA1), endogenous in HaCaT cells (human (endogenous in HaCaT)) (UniProt P55317); experiment: co-IP; endogenous co-IP with a FOXA1 antibody in WT and T603A mutant HaCaT cells treated without or with TGFβ for 3 h; blots for MED15 and pMED15
T1 sequence: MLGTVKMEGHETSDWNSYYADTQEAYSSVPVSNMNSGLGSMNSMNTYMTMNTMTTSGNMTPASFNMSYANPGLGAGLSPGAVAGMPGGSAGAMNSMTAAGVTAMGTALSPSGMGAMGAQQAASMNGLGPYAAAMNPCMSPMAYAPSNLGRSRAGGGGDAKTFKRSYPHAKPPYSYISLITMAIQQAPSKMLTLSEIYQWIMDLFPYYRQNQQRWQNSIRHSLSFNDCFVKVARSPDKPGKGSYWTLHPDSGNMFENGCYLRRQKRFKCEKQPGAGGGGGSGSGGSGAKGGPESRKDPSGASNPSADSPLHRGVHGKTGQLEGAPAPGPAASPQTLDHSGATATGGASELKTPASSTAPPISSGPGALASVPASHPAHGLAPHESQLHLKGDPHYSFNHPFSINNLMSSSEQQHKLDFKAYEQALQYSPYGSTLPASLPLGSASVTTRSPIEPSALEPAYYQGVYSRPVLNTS

Protein sequences, listed by entry. Tags and fused reporters are not part of them. Lines headed by an entry give the natural chain unless they say otherwise; changes in a name come on top.
UniProt Q96RN5: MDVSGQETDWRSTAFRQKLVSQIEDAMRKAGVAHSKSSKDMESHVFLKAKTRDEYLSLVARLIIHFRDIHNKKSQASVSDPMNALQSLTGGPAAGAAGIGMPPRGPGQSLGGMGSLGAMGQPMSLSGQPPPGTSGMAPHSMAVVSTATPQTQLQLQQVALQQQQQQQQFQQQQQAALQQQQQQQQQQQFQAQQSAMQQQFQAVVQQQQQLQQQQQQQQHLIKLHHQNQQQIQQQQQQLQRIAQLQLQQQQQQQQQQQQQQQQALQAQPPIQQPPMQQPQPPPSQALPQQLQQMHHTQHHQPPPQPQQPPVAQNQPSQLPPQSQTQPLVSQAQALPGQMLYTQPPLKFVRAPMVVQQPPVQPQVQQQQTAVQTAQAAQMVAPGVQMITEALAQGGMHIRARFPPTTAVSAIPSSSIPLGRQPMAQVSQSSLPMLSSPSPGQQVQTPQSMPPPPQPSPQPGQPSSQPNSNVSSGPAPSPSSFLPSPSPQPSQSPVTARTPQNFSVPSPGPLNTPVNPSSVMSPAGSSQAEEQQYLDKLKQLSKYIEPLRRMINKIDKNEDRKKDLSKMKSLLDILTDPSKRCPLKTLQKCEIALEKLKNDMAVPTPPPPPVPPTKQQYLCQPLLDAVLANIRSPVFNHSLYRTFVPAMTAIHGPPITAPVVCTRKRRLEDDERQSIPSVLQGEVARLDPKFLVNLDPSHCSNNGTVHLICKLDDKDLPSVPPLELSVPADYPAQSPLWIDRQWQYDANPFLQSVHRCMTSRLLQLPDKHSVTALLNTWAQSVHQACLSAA

[2] = molecular target: T2, FLAG-FOXA1 (UniProt P55317); experiment: co-IP; FLAG beads to pull down FLAG-FOXA1 in FLAG-FOXA1-overexpressing and control 293T cells
T2 sequence: T1 sequence

binding [1]	binding [2]	Substance
binds		MED15 T603A (endogenous single-site mutant, dephosphorylated mutant) (from UniProt Q96RN5 1-788)
binds weakly		MED15 phosphorylated at T603 (from UniProt Q96RN5 1-788)
binds		MED15, endogenous wild type in HaCaT cells (from UniProt Q96RN5 1-788)
	binds	MED15, in 293T cells (co-IP with FLAG-FOXA1) (from UniProt Q96RN5 1-788)

Source: PMC12365249
